Experimental data from US5359047.
Results from cells or extracts need not show a direct contact. A negative result means that nothing was seen under these conditions.

Amino acid sequences for entries named in this document (tags omitted). Residues count along the entry.
UniProt Q08945, 2-709: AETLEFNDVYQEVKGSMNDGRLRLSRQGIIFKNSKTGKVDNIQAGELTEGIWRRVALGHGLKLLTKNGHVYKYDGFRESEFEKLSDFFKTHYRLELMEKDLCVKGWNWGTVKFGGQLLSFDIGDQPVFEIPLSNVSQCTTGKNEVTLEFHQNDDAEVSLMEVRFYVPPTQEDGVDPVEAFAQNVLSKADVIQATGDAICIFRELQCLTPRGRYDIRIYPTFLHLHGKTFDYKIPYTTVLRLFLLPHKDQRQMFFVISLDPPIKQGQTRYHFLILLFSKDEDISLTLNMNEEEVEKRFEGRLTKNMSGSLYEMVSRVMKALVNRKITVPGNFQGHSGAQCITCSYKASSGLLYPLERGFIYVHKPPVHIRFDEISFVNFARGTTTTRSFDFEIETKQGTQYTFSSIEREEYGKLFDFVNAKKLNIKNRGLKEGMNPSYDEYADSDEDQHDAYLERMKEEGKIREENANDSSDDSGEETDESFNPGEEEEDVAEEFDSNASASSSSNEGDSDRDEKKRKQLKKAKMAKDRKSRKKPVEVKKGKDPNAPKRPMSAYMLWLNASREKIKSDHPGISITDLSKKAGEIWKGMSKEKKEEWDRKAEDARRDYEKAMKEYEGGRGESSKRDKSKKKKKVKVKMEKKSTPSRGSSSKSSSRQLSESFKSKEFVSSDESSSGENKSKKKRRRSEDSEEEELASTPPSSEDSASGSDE

Target: cis-DDP structure-specific recognition protein (SSRP), cellular (Homo sapiens) (UniProt Q08945)
Assay: EMSA
Settings: protein in an extract, label: 5'-32P bottom strand, variant of 110 bp ligated cis-d(GpG) oligo, only the site is given

Sequence | binding result (cis-DDP 1,2-intrastrand d(GpG), 88 and 110 bp bound, 44 and 66 bp not bound) | binding result (nonspecific binding only)
TCTCCTTCTTGGTTCTCTTCTC (double strand) [44 or 66 bp ligated cis-d(GpG) oligo] | no binding | 
TCTCCTTCTTGGTTCTCTTCTC (double strand) [110 bp ligated unmodified oligo] |  | no binding
